Results reported in the supplement of paper PMC10849652.
The other results are listed elsewhere or left out. Residues, ends and D or L forms follow the SMILES beside them. *: point of attachment. Cbz = O=C(OCc1ccccc1)*

Chains of the proteins cited; added tags and fusions are not shown. Lines headed by an entry give the natural chain unless they say otherwise; changes in a name come on top.
UniProt O75417: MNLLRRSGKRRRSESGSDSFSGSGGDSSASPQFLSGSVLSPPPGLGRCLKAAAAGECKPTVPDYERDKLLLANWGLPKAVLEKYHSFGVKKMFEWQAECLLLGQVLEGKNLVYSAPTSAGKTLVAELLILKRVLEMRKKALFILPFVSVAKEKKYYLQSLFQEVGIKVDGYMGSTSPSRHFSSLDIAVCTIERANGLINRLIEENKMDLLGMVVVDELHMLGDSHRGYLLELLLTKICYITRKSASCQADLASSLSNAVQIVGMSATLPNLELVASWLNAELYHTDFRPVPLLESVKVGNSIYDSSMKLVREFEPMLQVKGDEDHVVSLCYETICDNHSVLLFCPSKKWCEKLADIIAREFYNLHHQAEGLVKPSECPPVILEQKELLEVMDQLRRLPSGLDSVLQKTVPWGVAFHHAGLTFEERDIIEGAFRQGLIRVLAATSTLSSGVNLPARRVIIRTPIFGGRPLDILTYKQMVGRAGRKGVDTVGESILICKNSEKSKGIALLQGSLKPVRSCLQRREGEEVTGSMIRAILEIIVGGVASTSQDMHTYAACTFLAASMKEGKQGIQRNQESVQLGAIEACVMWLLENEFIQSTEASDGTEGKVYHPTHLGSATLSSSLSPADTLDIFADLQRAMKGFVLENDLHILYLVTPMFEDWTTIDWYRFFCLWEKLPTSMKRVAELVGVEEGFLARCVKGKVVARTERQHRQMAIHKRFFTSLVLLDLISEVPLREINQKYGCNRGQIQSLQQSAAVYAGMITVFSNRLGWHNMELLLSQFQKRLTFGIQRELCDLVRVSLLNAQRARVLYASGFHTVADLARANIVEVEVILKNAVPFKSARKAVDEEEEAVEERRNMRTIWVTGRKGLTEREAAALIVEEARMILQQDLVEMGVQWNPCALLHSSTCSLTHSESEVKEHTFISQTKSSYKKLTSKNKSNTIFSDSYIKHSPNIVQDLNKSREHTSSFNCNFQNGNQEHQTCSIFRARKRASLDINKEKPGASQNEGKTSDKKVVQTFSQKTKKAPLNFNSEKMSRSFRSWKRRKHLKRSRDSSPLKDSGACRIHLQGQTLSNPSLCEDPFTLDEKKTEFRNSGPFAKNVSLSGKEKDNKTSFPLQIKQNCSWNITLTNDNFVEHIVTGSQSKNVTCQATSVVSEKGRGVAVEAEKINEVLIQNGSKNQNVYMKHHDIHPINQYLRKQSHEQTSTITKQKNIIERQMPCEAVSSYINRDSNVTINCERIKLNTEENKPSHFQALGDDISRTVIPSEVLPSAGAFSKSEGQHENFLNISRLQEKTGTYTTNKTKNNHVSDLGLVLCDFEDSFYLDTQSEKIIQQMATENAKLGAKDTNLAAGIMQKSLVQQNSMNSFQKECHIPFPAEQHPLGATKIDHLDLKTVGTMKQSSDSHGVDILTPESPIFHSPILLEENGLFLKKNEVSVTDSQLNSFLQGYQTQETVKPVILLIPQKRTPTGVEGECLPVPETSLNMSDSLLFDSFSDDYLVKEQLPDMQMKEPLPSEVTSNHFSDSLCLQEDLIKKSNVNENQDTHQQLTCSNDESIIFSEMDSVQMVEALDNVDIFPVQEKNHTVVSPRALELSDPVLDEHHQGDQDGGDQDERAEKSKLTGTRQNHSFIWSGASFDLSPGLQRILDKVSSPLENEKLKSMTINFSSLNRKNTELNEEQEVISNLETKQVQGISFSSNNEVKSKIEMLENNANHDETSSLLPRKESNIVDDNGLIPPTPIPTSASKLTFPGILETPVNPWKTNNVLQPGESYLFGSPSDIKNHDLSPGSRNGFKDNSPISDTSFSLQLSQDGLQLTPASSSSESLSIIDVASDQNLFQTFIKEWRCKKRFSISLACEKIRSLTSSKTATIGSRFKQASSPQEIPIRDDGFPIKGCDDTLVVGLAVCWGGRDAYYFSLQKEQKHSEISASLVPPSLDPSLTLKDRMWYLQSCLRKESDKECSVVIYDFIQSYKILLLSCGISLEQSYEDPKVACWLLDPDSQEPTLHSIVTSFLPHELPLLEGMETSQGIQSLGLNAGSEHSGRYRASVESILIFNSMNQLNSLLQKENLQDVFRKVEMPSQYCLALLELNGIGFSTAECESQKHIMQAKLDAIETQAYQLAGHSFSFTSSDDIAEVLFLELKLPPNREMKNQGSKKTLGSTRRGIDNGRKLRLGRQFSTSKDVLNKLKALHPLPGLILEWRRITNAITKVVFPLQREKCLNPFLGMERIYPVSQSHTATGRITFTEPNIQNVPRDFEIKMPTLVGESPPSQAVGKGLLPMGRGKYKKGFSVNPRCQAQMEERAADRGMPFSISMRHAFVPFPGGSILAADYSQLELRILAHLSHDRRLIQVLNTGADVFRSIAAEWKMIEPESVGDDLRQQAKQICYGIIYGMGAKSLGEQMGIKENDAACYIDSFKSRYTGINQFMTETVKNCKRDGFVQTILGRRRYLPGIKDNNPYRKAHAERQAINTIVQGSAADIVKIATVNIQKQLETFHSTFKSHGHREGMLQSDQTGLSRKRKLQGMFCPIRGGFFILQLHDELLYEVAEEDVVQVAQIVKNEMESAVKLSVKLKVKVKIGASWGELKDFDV
UniProt P51805: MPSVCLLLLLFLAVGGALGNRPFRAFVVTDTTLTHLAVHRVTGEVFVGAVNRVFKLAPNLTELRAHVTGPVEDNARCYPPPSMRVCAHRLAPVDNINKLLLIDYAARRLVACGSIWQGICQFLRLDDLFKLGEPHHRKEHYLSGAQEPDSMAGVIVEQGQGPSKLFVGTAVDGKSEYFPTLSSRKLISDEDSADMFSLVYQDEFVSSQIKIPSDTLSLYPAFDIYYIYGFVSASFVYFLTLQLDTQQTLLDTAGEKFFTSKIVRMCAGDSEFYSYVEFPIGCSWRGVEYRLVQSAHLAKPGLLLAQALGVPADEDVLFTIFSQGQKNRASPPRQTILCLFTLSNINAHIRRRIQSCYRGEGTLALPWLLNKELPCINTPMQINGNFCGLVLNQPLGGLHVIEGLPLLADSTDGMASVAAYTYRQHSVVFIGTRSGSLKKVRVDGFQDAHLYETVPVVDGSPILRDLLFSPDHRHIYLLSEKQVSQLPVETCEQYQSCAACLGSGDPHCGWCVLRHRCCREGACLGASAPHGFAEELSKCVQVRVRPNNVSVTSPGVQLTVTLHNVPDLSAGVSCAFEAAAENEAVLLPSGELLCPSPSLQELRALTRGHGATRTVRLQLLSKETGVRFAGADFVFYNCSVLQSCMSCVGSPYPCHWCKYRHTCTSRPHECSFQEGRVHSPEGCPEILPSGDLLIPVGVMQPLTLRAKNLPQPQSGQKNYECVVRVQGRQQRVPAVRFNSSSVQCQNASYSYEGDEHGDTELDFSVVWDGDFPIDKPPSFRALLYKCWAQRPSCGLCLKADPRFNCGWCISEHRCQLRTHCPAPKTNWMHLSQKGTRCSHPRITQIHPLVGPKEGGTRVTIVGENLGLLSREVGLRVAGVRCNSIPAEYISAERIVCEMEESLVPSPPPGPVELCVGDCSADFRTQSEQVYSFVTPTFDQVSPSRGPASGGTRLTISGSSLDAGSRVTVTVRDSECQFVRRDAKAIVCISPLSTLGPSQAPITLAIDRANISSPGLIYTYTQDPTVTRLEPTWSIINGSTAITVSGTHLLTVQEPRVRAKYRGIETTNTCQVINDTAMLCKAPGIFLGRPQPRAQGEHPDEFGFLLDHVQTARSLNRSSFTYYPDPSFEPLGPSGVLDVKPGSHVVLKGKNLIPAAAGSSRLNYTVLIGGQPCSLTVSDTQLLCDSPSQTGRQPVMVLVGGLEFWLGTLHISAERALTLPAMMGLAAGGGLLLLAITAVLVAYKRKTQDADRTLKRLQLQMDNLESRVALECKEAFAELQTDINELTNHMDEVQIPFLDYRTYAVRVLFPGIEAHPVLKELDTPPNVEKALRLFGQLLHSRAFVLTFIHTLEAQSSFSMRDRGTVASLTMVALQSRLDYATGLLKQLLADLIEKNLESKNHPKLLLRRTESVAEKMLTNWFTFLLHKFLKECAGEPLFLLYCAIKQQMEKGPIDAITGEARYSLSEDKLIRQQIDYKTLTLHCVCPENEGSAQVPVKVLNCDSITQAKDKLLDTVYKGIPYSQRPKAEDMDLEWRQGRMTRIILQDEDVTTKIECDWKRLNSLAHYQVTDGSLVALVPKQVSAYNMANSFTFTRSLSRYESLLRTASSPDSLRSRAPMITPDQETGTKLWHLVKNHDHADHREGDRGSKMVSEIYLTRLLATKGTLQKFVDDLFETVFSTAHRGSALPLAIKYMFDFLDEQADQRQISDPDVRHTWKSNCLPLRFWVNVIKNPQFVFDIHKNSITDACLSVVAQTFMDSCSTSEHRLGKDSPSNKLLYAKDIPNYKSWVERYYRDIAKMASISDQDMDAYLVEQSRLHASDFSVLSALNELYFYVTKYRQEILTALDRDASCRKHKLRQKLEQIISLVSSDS
UniProt O00469: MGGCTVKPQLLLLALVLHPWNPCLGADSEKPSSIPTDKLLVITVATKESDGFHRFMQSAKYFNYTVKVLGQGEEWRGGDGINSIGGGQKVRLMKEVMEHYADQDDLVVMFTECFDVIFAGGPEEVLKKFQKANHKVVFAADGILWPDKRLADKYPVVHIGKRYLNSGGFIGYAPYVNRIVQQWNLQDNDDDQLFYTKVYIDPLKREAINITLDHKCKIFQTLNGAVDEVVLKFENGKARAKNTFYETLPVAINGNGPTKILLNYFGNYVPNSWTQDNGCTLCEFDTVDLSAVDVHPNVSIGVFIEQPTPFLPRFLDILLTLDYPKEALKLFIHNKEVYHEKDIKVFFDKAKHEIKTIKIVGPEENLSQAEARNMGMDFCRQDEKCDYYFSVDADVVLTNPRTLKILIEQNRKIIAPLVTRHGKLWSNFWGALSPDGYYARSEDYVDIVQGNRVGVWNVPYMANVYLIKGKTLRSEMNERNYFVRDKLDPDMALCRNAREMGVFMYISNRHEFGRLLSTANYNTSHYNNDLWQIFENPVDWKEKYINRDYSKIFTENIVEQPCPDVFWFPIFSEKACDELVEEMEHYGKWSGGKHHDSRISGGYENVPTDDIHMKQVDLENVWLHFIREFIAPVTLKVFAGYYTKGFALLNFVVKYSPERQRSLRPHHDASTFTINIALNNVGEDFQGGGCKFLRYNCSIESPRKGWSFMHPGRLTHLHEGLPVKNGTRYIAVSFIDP
UniProt O00411: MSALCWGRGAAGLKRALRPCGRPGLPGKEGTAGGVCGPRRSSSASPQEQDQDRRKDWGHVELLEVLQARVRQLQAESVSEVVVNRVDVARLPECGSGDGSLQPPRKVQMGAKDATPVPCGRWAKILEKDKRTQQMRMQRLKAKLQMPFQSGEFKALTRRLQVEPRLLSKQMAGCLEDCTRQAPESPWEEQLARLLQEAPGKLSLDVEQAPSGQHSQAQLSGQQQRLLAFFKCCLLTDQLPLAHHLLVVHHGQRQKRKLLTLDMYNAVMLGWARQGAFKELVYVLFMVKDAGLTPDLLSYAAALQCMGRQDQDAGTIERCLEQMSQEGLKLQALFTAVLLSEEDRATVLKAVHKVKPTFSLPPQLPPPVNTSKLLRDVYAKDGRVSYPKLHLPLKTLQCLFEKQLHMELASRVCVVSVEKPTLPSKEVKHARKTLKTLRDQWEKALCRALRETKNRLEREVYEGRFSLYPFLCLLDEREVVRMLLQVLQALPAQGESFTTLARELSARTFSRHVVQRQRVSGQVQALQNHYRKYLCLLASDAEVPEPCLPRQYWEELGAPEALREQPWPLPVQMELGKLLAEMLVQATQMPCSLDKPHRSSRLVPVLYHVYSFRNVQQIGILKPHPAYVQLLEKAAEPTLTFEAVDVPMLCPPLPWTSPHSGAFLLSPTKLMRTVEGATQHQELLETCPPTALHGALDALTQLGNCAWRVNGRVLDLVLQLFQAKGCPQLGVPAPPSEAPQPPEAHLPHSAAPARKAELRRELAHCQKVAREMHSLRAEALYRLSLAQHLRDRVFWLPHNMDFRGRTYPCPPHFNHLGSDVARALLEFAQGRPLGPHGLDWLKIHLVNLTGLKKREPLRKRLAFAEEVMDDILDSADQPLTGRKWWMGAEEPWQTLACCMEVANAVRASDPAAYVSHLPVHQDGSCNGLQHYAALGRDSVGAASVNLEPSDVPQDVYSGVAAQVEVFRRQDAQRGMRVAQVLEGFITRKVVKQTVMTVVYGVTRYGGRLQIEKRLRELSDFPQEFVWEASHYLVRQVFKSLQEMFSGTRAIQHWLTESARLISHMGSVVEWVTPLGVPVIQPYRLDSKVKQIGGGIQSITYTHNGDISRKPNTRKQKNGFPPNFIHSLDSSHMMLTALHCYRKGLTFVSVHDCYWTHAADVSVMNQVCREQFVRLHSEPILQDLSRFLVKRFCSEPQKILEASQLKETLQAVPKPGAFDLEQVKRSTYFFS
UniProt Q9NW61: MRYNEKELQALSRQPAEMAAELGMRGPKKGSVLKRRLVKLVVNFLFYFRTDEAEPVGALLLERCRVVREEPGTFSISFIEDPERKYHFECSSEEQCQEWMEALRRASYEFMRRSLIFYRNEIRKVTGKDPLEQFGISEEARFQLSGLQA

Key:
Experiment in all cases: log2 fold change, soluble protein after heating vs DMSO (PISA); higher = thermal stabilisation; K562 cells, 10 uM, 30 min; active = over 0.2 and 3.5 SD of the protein, either way, in both replicates (recomputed)
[1] = compound: C1=CC2=NC=CN=C2C=C1/C=C/3\C(=O)NC(=O)S3
Summary of the method: (§1)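 Values are thermal stability changes relative to control samples and are taken from duplicates. They are stated as log2 fold changes. Before quantification by TMTpro 16plex LC-MS/MS with equalised channel sums, K562 cells at 2×10^6 cells/mL were treated with 10 μM compound for 30 min, heated in aliquots for 3 min across 48°C-58°C, pooled, extracted in PBS with 0.5% NP-40 at 4°C, and centrifuged at 21,000xg for 90 min to give the soluble supernatant.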

[2] = compound: C=CC(=O)N1CCC[C@@H](n2nc(-c3ccc(Oc4ccccc4)cc3)c3c(N)ncnc32)C1 [ibrutinib]
Summary of the method: as §1

[3] = compound: C/C(=N\NC(=O)C1=CC(=CC=C1)S(=O)(=O)N2CCOCC2)/C3=C(C=CC(=C3)Cl)O
Summary of the method: as §1

[4] = compound: C1=CC(=C(C=C1Cl)C2=NC3=NC=CN=C3C(=N2)NC4=CC=NC=C4)F
Summary of the method: as §1

[5] = compound: C1=CC2=C(C=CC(=C2)/C=C\3/C(=O)NC(=NCC4=CC=CS4)S3)N=C1
Summary of the method: as §1

[6] = compound: C1=CC=C(C=C1)C2=NC(=C(N2)C3=CC=NC=C3)C4=CC(=C(C=C4)Cl)O
Summary of the method: as §1

[7] = compound: C1=CC=C2C(=C1)C3=NNC4=CC=CC(=C43)C2=O
Summary of the method: as §1

[8] = compound: C1CCN(C1)C(=O)NC2=CC=CC(=C2)NC3=NC=C(C(=N3)NCCC4=CN=CN4)Br
Summary of the method: as §1

[9] = compound: C1CN(CCC1(CC2=CC=C(C=C2)Cl)N)C3=NC=NC4=C3C=CN4
Summary of the method: as §1

[10] = compound: CC(=O)c1cnc2ccc(-c3cc(Cl)c(O)c(Cl)c3)nc2c1N[C@H]1CC[C@H](CN(C)C)CC1
Summary of the method: as §1

[11] = compound: CC(C)(C)Cn1c(N)nc2ccc(-c3[nH]c(C(C)(C)C)nc3-c3ccc(F)cc3)nc21 [ralimetinib]
Summary of the method: as §1

[12] = compound: CC(C)(O)CC(=O)NCCn1ccc2ncnc(Nc3ccc(Oc4cccc(C(F)(F)F)c4)c(Cl)c3)c21
Summary of the method: as §1

[13] = compound: CC(C)C[C@@H](C=O)NC(=O)[C@H](CC(C)C)NC(=O)[C@H](CC(C)C)NC(=O)OCc1ccccc1
Summary of the method: as §1

[14] = compound: CC1=C(C(CC(=O)N1)C2=CC=C(C=C2)C(F)(F)F)C(=O)NC3=C(C=C4C(=C3)C=NN4)F
Summary of the method: as §1

[15] = compound: CC1=C(C2=C(C=C1)C(=O)C3=CC=CC=C3N2CCCN)C
Summary of the method: as §1

[16] = compound: C#Cc1cccc(Nc2ncnc3cc(OCCOC)c(OCCOC)cc23)c1 [erlotinib]
Summary of the method: as §1

[17] = compound: C1=CC(=CC=C1C2=NC3=C(N2)C=C(C=C3)C(=O)N)OC4=CC=C(C=C4)Cl
Summary of the method: as §1

[18] = compound: CC(C)C1=C2N=C(C=C(N2N=C1)NCC3=CC=CC=C3)NCCCCCCN
Summary of the method: as §1

[19] = compound: C1COCCN1CCN2C3=CC=CC=C3N=C2NC(=O)C4=CC(=CC=C4)[N+](=O)[O-] [IRAK-1-4 Inhibitor I]
Summary of the method: as §1

[20] = compound: CC(C)N(C[C@H]1O[C@@H](n2cnc3c(N)ncnc32)[C@H](O)[C@@H]1O)[C@H]1C[C@@H](CCc2nc3cc(C(C)(C)C)ccc3[nH]2)C1 [pinometostat]
Summary of the method: as §1

Measured: log2 fold change

PPM1B isoform 2 (UniProt O75688)
inactive: [1] -0.067 | [2] 0.017

PPIA isoform 2 (UniProt P62937)
inactive: [3] -0.044 | [4] 0.154 | [5] 0.116 | [1] 0.136 | [6] -0.174 | [7] 0.048 | [8] 0.119 | [9] 0.082 | [2] -0.171 | [10] -0.095 | [11] -0.078 | [12] 0.057 | [13] -0.081 | [14] 0.191 | [15] 0.056

POLQ (UniProt O75417)
inactive: [1] 0.009 | [6] -0.134 | [2] -0.051 | [11] -0.071 | [13] -0.101 | [14] -0.126

POLR1E isoform 1 (UniProt Q9GZS1)
inactive: [3] 0.118 | [5] 0.096 | [6] -0.159 | [7] -0.168 | [10] -0.224 | [11] 0.006 | [13] 0.21

PM20D2 (UniProt Q8IYS1)
inactive: [16] 0.08 | [17] 0.12 | [6] 0.056 | [8] -0.054 | [9] 0.269 | [11] 0.03 | [18] -0.277 | [13] 0.024 | [15] 0.168

PLXNA3 (UniProt P51805)
inactive: [3] -0.403 | [4] 0.158 | [5] 0.019 | [1] -0.032 | [7] 0.242 | [8] -0.041 | [9] 0.02 | [19] -0.241 | [2] 0.144 | [10] 0.072 | [12] -0.142 | [20] 0.101 | [15] -0.007

PLOD2 isoform 2 (UniProt O00469)
inactive: [19] -0.302 | [20] 0.05

POLE (UniProt Q07864)
inactive: [1] -0.048 | [6] 0.051 | [2] -0.019 | [11] 0.152 | [13] 0.507

PPHLN1 isoform 3 (UniProt Q8NEY8)
inactive: [8] 0.033 | [9] -0.082 | [15] 0.19

POLRMT (UniProt O00411)
inactive: [4] -0.026 | [19] -0.046 | [12] 0.063 | [20] 0.034

POLB (UniProt P06746)
inactive: [16] -0.236 | [4] -0.186 | [17] 0.094 | [6] 0 | [8] -0.118 | [9] 0.002 | [11] 0.14 | [12] -0.222 | [18] 0.091 | [13] 0.143 | [15] 0.175

PLS3 (UniProt H7C4N2)
inactive: [4] -0.366 | [19] -0.001 | [12] 0.066 | [20] 0.319

PLEKHJ1 (UniProt Q9NW61)
inactive: [4] 0.079 | [6] -0.008 | [11] 0.009 | [12] 0.25 | [13] 0.165

POF1B isoform 1 (UniProt Q8WVV4)
inactive: [1] -0.451 | [8] -0.081 | [9] -0.196 | [2] 0.09 | [14] -0.063 | [15] 1.46

POLG, A0A3B3IS91
inactive: [16] -0.087 | [17] 0.168 | [8] -0.107 | [9] 0.05 | [18] -0.212 | [15] 0.144

PLPPR3 isoform 3 (UniProt Q6T4P5)
inactive: [4] -0.02 | [6] -0.081 | [11] -0.001 | [12] -0.078 | [13] 0.203

POLR3GL (UniProt Q9BT43)
inactive: [1] 0.152 | [2] -0.079

PLTP (UniProt P55058)
inactive: [16] -0.023 | [4] 0.049 | [17] 0.021 | [19] 0.213 | [12] 0.04 | [18] 0.129 | [20] 0.115 | [14] -0.059

PMS2CL (UniProt Q68D20)
inactive: [4] 0.094 | [6] -0.023 | [11] -0.21 | [12] -0.042 | [13] -0.258

POMT2 (UniProt Q9UKY4)
inactive: [3] -0.097 | [5] 0.07 | [1] -0.083 | [6] 0.103 | [7] -0.055 | [8] 0.112 | [9] 0.028 | [19] 0.003 | [2] 0.087 | [10] -0.029 | [11] -0.027 | [13] 0.044 | [20] 0.004 | [15] -0.105

POLE2 (UniProt P56282)
inactive: [6] -0.132 | [19] -0.019 | [11] 0.238 | [13] -0.075 | [20] 0.059

Quoted from above (2 entries):
POLR3GL (UniProt Q9BT43)
inactive: [1] 0.152 | [2] -0.079

PLTP (UniProt P55058)
inactive: [16] -0.023 | [4] 0.049 | [17] 0.021 | [19] 0.213 | [12] 0.04 | [18] 0.129 | [20] 0.115 | [14] -0.059

Later entries

PORCN (UniProt Q9H237)
inactive: [16] -0.015 | [17] 0.182 | [6] 0.405 | [11] 0.03 | [18] -0.054 | [13] -0.283

POLD4 (UniProt Q9HCU8)
inactive: [3] -0.077 | [5] -0.066 | [1] 0.023 | [6] -0.045 | [7] -0.014 | [8] -0.032 | [9] 0.041 | [19] 0.065 | [2] 0.152 | [10] -0.045 | [11] -0.101 | [13] 0.352 | [20] 0 | [14] 0.104 | [15] 0.091

PLXND1 (UniProt Q9Y4D7)
inactive: [3] 0.364 | [5] 0.109 | [1] -0.38 | [6] 0.097 | [7] -0.104 | [19] 0.029 | [2] -0.274 | [10] -0.087 | [11] 0.144 | [13] -0.368 | [20] -0.033

POC1A (UniProt Q8NBT0)
inactive: [3] -0.017 | [5] 0.002 | [1] 0.111 | [7] 0.032 | [8] -0.128 | [9] -0.094 | [19] -0.079 | [2] -0.06 | [10] -0.027 | [20] 0.044 | [15] -0.311

PNKP (UniProt Q96T60)
inactive: [3] -0.067 | [5] 0.147 | [6] -0.03 | [7] -0.102 | [8] -0.225 | [9] 0.101 | [19] -0.045 | [10] -0.051 | [11] -0.066 | [13] 0.088 | [20] 0.043 | [15] 0.634
